PubChem BioAssay AID1259308 – NCATS – 2017
Assay: 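Candidate targets for better recombinant protein yield in mammalian cells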 (primary screen). Cells: human HEK293 embryonic kidney cells stably expressing firefly luciferase (HEK-CMV-Luc2-Hygro). Reagents: single siRNA against human genes, 0.8 pmol siRNA per well. Timing: 72 h. Measurement: 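Reporter luminescence and viable-cell signal on separate replicate plates, given as percent of non-targeting control and median/MAD z-scores, plus per-cell luciferase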. Reading the numbers: total luciferase, z-score and total luciferase, % of control: higher = more reporter protein produced; luciferase per cell, z-score: higher = more reporter output per viable cell; viable cells, % of control: higher = more viable cells. Active means: 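An siRNA counts as active if its total luciferase robust z-score exceeds 3; genes with two or more such siRNAs out of three were retested with fresh siRNAs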. Calls: active = raised luciferase; inactive = no rise.
In all, the deposit lists about 59,000 reagents; below is a random part of them. About 1,510 of them (2.6%) were called active. 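Calls use total luciferase alone and ignore viability, so some active siRNAs may act by altering cell number.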 Reagents against one gene are numbered here.

The first 3 records as a preview:
| total luciferase, z-score | total luciferase, % of control | luciferase per cell, z-score | viable cells, % of control | Outcome | gene | reagent |
| --- | --- | --- | --- | --- | --- | --- |
| -0.502 | 71.9 | -0.298 | 86.9 | inactive | PATL1 (PAT1 homolog 1, processing body mRNA decay factor) | 1 |
| 1.31 | 108 | 1.95 | 72.2 | inactive | PATL1 (PAT1 homolog 1, processing body mRNA decay factor) | 2 |
| 0.33 | 88.5 | 0.405 | 88.9 | inactive | PATL1 (PAT1 homolog 1, processing body mRNA decay factor) | 3 |

Results, from the first entry:
| total luciferase, z-score | total luciferase, % of control | luciferase per cell, z-score | viable cells, % of control | Outcome | gene | reagent |
| --- | --- | --- | --- | --- | --- | --- |
| -0.502 | 71.9 | -0.298 | 86.9 | inactive | PATL1 (PAT1 homolog 1, processing body mRNA decay factor) | 1 |
| 1.31 | 108 | 1.95 | 72.2 | inactive | PATL1 (PAT1 homolog 1, processing body mRNA decay factor) | 2 |
| 0.33 | 88.5 | 0.405 | 88.9 | inactive | PATL1 (PAT1 homolog 1, processing body mRNA decay factor) | 3 |
| -0.174 | 78.4 | -0.525 | 101 | inactive | RMC1 (regulator of MON1-CCZ1) | 1 |
| 0.95 | 101 | 0.0693 | 111 | inactive | RMC1 (regulator of MON1-CCZ1) | 2 |
| 0.357 | 89 | 0.779 | 81 | inactive | RMC1 (regulator of MON1-CCZ1) | 3 |
| 1.17 | 105 | 0.754 | 96.4 | inactive | PLAAT1 (phospholipase A and acyltransferase 1) | 1 |
| 1.07 | 103 | 0.018 | 115 | inactive | PLAAT1 (phospholipase A and acyltransferase 1) | 2 |
| 4.37 | 169 | 2.4 | 100 | active | PLAAT1 (phospholipase A and acyltransferase 1) | 3 |
| -0.503 | 71.9 | -0.188 | 84.4 | inactive | CDC37L1 (cell division cycle 37 like 1, HSP90 cochaperone) | 1 |
| -1.41 | 53.9 | -1.07 | 79.9 | inactive | CDC37L1 (cell division cycle 37 like 1, HSP90 cochaperone) | 2 |
| -0.151 | 78.9 | 0.239 | 82.8 | inactive | CDC37L1 (cell division cycle 37 like 1, HSP90 cochaperone) | 3 |
| 1.54 | 113 | 0.981 | 97.1 | inactive | IQCB1 (IQ motif containing B1) | 1 |
| 0.619 | 94.2 | 1.62 | 68.7 | inactive | IQCB1 (IQ motif containing B1) | 2 |
| -0.444 | 73.1 | -0.432 | 91.5 | inactive | IQCB1 (IQ motif containing B1) | 3 |
| -0.258 | 76.7 | -0.0221 | 86.3 | inactive | TTC21B (tetratricopeptide repeat domain 21B) | 1 |
| 0.138 | 84.6 | -0.193 | 99.5 | inactive | TTC21B (tetratricopeptide repeat domain 21B) | 2 |
| 0.894 | 99.7 | 0.4 | 100 | inactive | TTC21B (tetratricopeptide repeat domain 21B) | 3 |
| 1.7 | 116 | 1.26 | 92.7 | inactive | CLIC3 (CLIC family member 3) | 1 |
| -0.18 | 78.3 | -0.509 | 100 | inactive | CLIC3 (CLIC family member 3) | 2 |
| 2.3 | 128 | 1.37 | 99.4 | inactive | CLIC3 (CLIC family member 3) | 3 |
| -0.483 | 72.3 | -1.28 | 113 | inactive | IFIT3 (interferon induced protein with tetratricopeptide repeats 3) | 1 |
| -0.114 | 79.6 | 0.755 | 72.9 | inactive | IFIT3 (interferon induced protein with tetratricopeptide repeats 3) | 2 |
| 3.88 | 159 | 2.17 | 100 | active | IFIT3 (interferon induced protein with tetratricopeptide repeats 3) | 3 |
